Test results published in the supplement of paper PMC12067093, “Discovery and optimisation of a covalent ligand for TRIM25 and its application to targeted protein ubiquitination” (Chemical Science, 2025).
Some of the results follow.

The chains behind the UniProt entries cited, without tags or fusion partners. Where a name states a change or a piece, a line headed by the entry shows the natural chain unless it says otherwise.
UniProt P26440: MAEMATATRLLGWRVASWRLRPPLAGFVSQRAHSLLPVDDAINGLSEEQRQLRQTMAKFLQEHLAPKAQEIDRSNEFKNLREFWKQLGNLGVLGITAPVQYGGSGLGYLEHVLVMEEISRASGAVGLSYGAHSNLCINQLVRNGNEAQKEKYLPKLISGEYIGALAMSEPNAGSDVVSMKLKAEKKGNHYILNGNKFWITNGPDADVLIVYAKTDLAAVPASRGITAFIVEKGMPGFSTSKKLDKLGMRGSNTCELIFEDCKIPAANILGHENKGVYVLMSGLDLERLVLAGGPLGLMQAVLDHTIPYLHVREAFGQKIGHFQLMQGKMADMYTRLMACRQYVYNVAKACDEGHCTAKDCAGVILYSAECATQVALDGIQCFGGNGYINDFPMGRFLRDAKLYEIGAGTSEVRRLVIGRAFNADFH
UniProt O75037: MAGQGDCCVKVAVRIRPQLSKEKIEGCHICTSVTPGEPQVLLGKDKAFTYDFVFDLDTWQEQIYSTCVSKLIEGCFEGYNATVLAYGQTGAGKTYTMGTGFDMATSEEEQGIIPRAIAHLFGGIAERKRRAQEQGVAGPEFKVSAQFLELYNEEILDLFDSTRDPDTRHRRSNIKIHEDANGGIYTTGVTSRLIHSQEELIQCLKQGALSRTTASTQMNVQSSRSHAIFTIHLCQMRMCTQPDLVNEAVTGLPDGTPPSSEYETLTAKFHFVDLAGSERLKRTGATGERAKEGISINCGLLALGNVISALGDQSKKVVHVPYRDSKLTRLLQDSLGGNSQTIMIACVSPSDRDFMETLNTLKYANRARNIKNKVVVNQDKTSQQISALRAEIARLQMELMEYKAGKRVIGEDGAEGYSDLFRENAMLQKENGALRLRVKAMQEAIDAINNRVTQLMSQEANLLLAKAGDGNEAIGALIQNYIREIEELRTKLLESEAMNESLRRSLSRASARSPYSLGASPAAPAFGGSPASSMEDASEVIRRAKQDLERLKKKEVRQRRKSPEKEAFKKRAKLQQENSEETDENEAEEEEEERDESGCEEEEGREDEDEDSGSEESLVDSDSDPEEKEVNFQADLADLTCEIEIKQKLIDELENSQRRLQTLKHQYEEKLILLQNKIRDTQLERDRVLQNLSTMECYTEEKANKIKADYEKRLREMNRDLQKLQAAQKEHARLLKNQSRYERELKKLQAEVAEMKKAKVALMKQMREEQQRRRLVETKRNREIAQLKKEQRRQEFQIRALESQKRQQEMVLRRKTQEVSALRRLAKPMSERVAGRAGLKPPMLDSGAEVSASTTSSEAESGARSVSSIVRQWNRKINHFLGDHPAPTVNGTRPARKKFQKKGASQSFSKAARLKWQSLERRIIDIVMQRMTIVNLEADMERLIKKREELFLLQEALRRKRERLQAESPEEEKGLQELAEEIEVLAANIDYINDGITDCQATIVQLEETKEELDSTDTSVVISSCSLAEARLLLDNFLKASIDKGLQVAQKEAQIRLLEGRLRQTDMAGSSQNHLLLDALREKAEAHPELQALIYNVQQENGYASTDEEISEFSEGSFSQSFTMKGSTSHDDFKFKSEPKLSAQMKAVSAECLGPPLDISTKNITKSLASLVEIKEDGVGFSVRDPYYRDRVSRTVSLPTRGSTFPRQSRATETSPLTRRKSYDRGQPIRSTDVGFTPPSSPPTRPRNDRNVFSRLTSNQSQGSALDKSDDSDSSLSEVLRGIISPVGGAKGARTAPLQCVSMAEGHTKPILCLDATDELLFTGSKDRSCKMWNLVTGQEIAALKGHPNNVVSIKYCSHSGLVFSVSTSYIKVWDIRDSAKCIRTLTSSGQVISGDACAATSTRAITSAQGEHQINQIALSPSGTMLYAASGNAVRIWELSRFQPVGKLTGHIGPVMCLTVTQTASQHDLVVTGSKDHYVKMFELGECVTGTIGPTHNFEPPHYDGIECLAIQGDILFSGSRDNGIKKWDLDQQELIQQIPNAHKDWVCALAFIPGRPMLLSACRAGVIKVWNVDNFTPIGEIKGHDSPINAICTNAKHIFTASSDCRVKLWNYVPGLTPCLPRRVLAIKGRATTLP
UniProt O94819: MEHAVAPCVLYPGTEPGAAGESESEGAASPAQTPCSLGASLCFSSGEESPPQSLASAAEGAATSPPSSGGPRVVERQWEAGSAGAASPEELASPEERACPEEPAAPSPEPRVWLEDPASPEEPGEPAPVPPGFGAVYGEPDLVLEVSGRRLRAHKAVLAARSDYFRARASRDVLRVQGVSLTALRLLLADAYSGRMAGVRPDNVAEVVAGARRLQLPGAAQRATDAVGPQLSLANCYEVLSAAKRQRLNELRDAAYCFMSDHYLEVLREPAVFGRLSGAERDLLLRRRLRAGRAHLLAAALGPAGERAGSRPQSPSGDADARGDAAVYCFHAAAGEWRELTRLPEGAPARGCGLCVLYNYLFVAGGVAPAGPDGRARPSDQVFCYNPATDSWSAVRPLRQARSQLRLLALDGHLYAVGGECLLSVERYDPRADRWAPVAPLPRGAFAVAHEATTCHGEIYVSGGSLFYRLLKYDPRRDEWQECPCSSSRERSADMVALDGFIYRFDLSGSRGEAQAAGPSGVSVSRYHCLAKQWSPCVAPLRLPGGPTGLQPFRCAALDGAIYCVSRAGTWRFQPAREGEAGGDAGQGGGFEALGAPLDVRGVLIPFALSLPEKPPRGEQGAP
UniProt Q14643, whole entry, looked up: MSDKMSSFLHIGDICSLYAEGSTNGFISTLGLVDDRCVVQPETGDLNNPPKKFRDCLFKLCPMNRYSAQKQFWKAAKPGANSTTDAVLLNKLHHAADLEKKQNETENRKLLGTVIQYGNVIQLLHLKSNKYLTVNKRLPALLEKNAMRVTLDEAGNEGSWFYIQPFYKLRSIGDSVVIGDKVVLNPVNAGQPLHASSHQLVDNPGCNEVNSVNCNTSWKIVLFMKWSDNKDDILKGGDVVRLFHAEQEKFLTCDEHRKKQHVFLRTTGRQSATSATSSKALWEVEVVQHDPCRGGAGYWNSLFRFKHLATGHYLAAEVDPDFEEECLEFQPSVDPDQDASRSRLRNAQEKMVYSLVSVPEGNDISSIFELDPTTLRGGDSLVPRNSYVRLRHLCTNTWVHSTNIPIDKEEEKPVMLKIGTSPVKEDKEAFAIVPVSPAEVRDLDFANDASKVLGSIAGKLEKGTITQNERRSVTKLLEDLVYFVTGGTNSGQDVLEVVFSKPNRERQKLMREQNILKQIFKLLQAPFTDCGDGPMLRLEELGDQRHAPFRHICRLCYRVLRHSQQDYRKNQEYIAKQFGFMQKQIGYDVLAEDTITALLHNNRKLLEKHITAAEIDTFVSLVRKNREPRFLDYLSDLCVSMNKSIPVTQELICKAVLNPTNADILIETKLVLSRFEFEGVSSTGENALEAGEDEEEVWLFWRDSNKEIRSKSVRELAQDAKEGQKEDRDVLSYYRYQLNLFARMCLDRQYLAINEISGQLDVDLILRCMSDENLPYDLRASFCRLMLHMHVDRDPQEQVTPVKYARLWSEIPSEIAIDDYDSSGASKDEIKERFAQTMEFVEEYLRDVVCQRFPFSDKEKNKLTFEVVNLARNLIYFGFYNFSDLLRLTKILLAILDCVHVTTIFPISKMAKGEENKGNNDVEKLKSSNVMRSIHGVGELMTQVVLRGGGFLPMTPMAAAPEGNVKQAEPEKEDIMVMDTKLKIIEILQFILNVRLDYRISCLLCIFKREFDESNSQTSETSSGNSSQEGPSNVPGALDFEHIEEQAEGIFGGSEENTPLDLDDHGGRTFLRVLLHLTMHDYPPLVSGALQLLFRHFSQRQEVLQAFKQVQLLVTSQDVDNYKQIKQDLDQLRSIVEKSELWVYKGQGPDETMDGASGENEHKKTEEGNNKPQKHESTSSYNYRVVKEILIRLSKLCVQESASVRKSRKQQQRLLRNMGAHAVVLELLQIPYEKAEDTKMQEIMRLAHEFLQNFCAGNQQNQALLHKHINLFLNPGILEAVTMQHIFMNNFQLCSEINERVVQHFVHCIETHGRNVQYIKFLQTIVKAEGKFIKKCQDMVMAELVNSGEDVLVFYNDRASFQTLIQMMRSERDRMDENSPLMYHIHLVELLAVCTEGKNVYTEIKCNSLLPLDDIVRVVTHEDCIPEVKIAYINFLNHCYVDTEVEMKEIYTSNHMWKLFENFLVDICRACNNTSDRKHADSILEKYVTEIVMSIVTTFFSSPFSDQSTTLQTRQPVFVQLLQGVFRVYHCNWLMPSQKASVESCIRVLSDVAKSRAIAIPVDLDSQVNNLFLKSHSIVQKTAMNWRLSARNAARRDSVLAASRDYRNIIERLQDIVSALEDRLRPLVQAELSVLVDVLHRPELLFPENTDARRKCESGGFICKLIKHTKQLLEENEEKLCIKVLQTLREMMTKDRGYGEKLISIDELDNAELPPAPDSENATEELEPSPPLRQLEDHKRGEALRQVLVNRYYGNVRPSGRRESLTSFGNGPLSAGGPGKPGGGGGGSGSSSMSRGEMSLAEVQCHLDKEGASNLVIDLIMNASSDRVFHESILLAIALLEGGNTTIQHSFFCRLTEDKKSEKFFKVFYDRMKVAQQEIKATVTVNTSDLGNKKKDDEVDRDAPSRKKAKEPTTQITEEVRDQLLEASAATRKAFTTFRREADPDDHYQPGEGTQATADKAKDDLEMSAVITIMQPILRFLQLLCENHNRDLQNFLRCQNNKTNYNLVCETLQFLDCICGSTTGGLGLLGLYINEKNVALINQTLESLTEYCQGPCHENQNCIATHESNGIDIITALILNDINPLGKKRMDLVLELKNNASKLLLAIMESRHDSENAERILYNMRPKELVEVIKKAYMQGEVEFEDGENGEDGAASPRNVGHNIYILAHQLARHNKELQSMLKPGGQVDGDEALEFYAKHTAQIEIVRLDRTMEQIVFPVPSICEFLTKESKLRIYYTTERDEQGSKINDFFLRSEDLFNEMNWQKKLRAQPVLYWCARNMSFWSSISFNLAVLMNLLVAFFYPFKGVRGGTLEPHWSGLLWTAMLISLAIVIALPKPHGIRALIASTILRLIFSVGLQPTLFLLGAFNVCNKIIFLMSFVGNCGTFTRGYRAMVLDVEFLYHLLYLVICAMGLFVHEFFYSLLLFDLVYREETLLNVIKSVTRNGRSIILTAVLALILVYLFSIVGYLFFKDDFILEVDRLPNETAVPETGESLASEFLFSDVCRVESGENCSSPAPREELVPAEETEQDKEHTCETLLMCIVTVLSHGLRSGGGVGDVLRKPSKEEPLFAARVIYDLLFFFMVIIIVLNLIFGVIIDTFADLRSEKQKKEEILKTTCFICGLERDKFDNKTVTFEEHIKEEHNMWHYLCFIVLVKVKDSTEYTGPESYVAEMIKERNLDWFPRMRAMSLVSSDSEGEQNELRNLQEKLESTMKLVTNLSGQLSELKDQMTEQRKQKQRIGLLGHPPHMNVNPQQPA
UniProt Q7L273: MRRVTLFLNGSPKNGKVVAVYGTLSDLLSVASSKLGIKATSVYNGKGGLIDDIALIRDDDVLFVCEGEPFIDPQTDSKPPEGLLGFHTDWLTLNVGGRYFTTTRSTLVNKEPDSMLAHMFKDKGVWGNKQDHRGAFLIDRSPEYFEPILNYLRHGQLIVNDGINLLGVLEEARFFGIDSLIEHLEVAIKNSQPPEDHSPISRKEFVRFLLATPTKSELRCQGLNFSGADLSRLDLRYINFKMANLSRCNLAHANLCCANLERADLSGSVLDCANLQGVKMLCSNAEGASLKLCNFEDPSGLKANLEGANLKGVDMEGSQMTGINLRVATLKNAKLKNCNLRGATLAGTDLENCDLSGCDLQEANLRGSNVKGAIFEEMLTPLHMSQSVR
UniProt Q9H9V9: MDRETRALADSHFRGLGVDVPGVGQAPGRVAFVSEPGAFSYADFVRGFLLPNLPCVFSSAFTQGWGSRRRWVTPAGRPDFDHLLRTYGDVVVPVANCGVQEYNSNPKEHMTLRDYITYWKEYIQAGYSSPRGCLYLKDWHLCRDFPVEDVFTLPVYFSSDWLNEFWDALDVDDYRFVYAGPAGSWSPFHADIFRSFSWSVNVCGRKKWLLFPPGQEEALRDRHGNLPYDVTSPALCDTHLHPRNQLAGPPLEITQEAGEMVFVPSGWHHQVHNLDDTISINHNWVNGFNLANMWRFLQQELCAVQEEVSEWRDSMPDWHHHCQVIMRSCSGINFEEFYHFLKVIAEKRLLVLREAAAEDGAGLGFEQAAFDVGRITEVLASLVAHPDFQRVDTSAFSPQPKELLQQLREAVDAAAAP

Compound: Cc1cc(ccc1-c1ccccc1)C(=O)N1CCCN(CC1)C(=O)CCl [compound 10]
Test: probe-labelled cysteine peptide fold change vs DMSO (competition) (log2 fold change); higher = less target engagement (more negative = stronger competition)
Settings: 10 µM; THP-1; incubation time: 4 h
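Further: competitive profiling in live THP-1 cells: cysteine peptides tagged with an iodoacetamide desthiobiotin (IA-DTB) probe, intensity after compound treatment relative to DMSO-treated cells.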

| Target | probe-labelled cysteine peptide fold change |
| --- | --- |
| ITPR2_Q14571_379_ADCLVPR (UniProt Q14571) | -0.135 |
| KIF20A_O95235_87_QEDQGCVR (UniProt O95235) | 0.102 |
| IVD_P26440_261_GSNTCELIFEDCKIPAANILGHENK (UniProt P26440) | 0.0089 |
| KDM3A_Q9Y4C1_251_IVDPSLIHVEVVHDNLVTCGNSAR (UniProt Q9Y4C1) | -0.332 |
| KDM1A_O60341_360_CPLYEANGQAVPK (UniProt O60341) | -0.23 |
| KIF21B_O75037_203_LIHSQEELIQCLK (UniProt O75037) | 0.168 |
| KBTBD11_O94819_483+485_RDEWQECPCSSSR (UniProt O94819) | -0.0586 |
| ITSN2_Q9NZM3_530_QCDLEIMEIK (UniProt Q9NZM3) | 0.0528 |
| KATNB1_Q9BVA0_579_YESYVQTGCTSLK (UniProt Q9BVA0) | -0.0669 |
| KDM2A_Q9Y2K7_913_ELCECMR (UniProt Q9Y2K7) | 0.0854 |
| KIF15_Q9NS87_1062_ILSEDIERDMLCEDLAHATEQLNMLTEASKK (UniProt Q9NS87) | -0.11 |
| ITPR1_Q14643_2224_TMEQIVFPVPSICEFLTK (UniProt Q14643) | 0.243 |
| KCTD9_Q7L273_220_CQGLNFSGADLSR (UniProt Q7L273) | 0.184 |
| KIF15_Q9NS87_949_CEQQMAK (UniProt Q9NS87) | 0.233 |
| JMJD4_Q9H9V9_188_DWHLCR (UniProt Q9H9V9) | 0.0632 |
| ITPR1_Q14643_1805_GEMSLAEVQCHLDK (UniProt Q14643) | 0.104 |

Looked up one by one from the entries so far, two records:

| Target | probe-labelled cysteine peptide fold change |
| --- | --- |
| KIF21B_O75037_203_LIHSQEELIQCLK (UniProt O75037) | 0.168 |
| KBTBD11_O94819_483+485_RDEWQECPCSSSR (UniProt O94819) | -0.0586 |
